In PubChem BioAssay AID330 (DTP/NCI, 2004):
The list does not hold the whole screen: it is rich in T/C values a quarter to a half above the control, in often repeated tests (any T/C) and in doses without a T/C. Other doses and runs of a compound stand elsewhere. T/C: endpoint of the treated group in % of that of the vehicle group. Some doses have a count of surviving animals in place of a T/C: the source files T/C as zero there, which appears to mark a toxic dose or a test without result, not a measured value. Some survivor counts are full or nearly so, which does not show that the dose was tolerated: survival well below the control is almost never listed, so the zero probably covers shortened survival too. Survivors were counted at the toxicity check, usually on the fifth day, unless a day is given; later deaths do not show. Schedules are NCI's codes, taken here to give the interval after Q, in days (D) or hours (H), and the number of doses after X. Some doses were run more than once; the values are given in rising order. For survival time, this PubChem deposit counts one and a half times the control or more as active, and values a quarter to a half above the control carry no call in these data; other NCI protocols may use other cut-offs. Some T/C values carry the count of animals alive at the toxicity check (mostly the fifth day); where none is given, no animal had died by that day. Signs of the kind (2×) say how often a value occurs here.

Tested on: P388 leukemia ip, CD2F1 mice, survival T/C
Assay: NCI In Vivo Anticancer Drug Screen. Data for tumor model P388 Leukemia (intraperitoneal) in CD2F1 (CDF1) mice
Details: T/C endpoint: median survival time, higher T/C = longer survival

Structure (SMILES): CCCCCCCCCCCCCCCC(=O)OCC1OC(n2ccc(N)nc2=O)C(O)C1O (stereo not given)
- T/C (dose: 1.0 mg/kg/injection, schedule: Q01DX009 (ip), vehicle: saline with Tween-80): 145 % of control
- T/C (dose: 3.13 mg/kg/injection, schedule: Q04DX003 (ip), vehicle: saline with Tween-80): 145 % of control
- T/C (dose: 5.0 mg/kg/injection, schedule: Q01DX001 (ip), vehicle: saline with Tween-80): 125 % of control
- T/C (dose: 6.25 mg/kg/injection, schedule: Q01DX005 (ip), vehicle: Klucel (hydroxypropylcellulose) (HPC), evaluated on day 30): 96, 123, 132, 138, 140, 142, 150, 153, 158, 163, 164, 165 (2×), 166, 170 (2×), 175, 176, 177 (2×), 178, 179, 180, 181, 182, 184, 191, 194, 195, 207 % of control (3×)
- T/C (dose: 6.25 mg/kg/injection, schedule: Q01DX005 (ip), vehicle: Klucel (hydroxypropylcellulose) (HPC), evaluated on day 35): 169 % of control [5 of 6 alive]
- T/C (dose: 6.25 mg/kg/injection, schedule: Q01DX009 (ip), vehicle: Klucel (hydroxypropylcellulose) (HPC), evaluated on day 30): 122, 140, 142, 153, 161, 167, 183, 187, 197, 200 (3×), 202, 204, 205, 209 (3×), 210 (2×), 214, 215 (2×), 222 (2×), 223, 225, 227, 232, 234, 246, 254, 259 % of control
- T/C (dose: 6.25 mg/kg/injection, schedule: Q01DX009 (ip), vehicle: Klucel (hydroxypropylcellulose) (HPC), evaluated on day 35): 188 and 228 % of control
- T/C (dose: 10.0 mg/kg/injection, schedule: Q01DX001 (ip), vehicle: saline with Tween-80): 133 % of control
- T/C (dose: 12.5 mg/kg/injection, schedule: Q01DX005 (ip), vehicle: Klucel (hydroxypropylcellulose) (HPC), evaluated on day 30): 154, 155, 166, 175, 177, 179, 183, 185, 189, 195 (2×), 196, 197 (2×), 198 [5 of 6 alive], 200, 205, 208, 211, 214, 215, 218, 220, 225, 228, 230, 238, 252 (2×), 262 (2×), 270 % of control
- T/C (dose: 12.5 mg/kg/injection, schedule: Q01DX005 (ip), vehicle: Klucel (hydroxypropylcellulose) (HPC), evaluated on day 35): 213 % of control
- T/C (dose: 12.5 mg/kg/injection, schedule: Q01DX009 (ip), vehicle: Klucel (hydroxypropylcellulose) (HPC), evaluated on day 30): 164, 169, 175, 177, 178, 202, 203, 204 [2 of 3 alive], 210, 218, 222, 225, 225 [5 of 6 alive], 227, 232, 233, 235 (2×), 240, 245 (3×), 247, 250, 253, 258, 260, 263, 265, 266, 267, 302, 316 % of control
- T/C (dose: 12.5 mg/kg/injection, schedule: Q01DX009 (ip), vehicle: Klucel (hydroxypropylcellulose) (HPC), evaluated on day 35): 224 and 245 % of control
- T/C (dose: 18.75 mg/kg/injection, schedule: Q04DX002 (ip), vehicle: Klucel (hydroxypropylcellulose) (HPC), evaluated on day 30): 132, 142, 145, 163, 171, 174, 175, 178, 183 (2×), 184, 185, 186, 187, 190, 192, 195, 197 (2×), 201, 204, 205, 207, 209 (2×), 211, 212, 218, 222, 243, 258 % of control
- T/C (dose: 18.75 mg/kg/injection, schedule: Q04DX002 (ip), vehicle: Klucel (hydroxypropylcellulose) (HPC), evaluated on day 35): 159, 177, 182 % of control
- survivor count (dose: 18.75 mg/kg/injection, schedule: Q04DX002 (ip), vehicle: Klucel (hydroxypropylcellulose) (HPC)): 3 of 3 and 6 of 6
- T/C (dose: 18.75 mg/kg/injection, schedule: Q04DX003 (ip), vehicle: Klucel (hydroxypropylcellulose) (HPC)): 145, 159, 166, 169 [2 of 3 alive], 172, 197, 202 (2×), 203, 204, 210 (2×), 211, 216 (5×), 219 [5 of 6 alive], 222, 223, 224, 235 (3×), 236, 240, 243, 245 (2×), 250, 254, 255, 259 % of control
- T/C (dose: 25.0 mg/kg/injection, schedule: Q01DX005 (ip), vehicle: Klucel (hydroxypropylcellulose) (HPC), evaluated on day 30): 105, 184, 190, 194, 195 (2×), 197, 200, 214, 215, 223 (2×), 233, 234, 236, 237, 238, 241 [2 of 3 alive], 243 (2×), 247, 252, 252 [2 of 3 alive], 255, 267 (2×), 272 (2×), 273, 276, 277, 288 % of control
- T/C (dose: 25.0 mg/kg/injection, schedule: Q01DX005 (ip), vehicle: Klucel (hydroxypropylcellulose) (HPC), evaluated on day 35): 276 % of control
- T/C (dose: 25.0 mg/kg/injection, schedule: Q01DX009 (ip), vehicle: Klucel (hydroxypropylcellulose) (HPC), evaluated on day 30): 168, 176, 180 [5 of 6 alive], 186 [5 of 6 alive], 192, 206, 212, 216, 225, 229, 237, 241, 245, 250 (2×), 256 (2×), 258 (2×), 263, 265, 265 [5 of 6 alive], 267, 274, 277, 278, 280, 290, 291, 294, 303, 322, 333 % of control
- T/C (dose: 25.0 mg/kg/injection, schedule: Q01DX009 (ip), vehicle: Klucel (hydroxypropylcellulose) (HPC), evaluated on day 35): 288 and 332 % of control
- T/C (dose: 30.0 mg/kg/injection, schedule: Q01DX009 (ip), vehicle: saline with Tween-80): 140 % of control
- T/C (dose: 31.25 mg/kg/injection, schedule: Q01DX001 (ip), vehicle: Klucel (hydroxypropylcellulose) (HPC)): 100, 147, 164 [5 of 6 alive], 179, 190, 192, 216, 232 (2×), 234 % of control
- survivor count (dose: 31.7 mg/kg/injection, schedule: Q01DX001 (ip), vehicle: Klucel (hydroxypropylcellulose) (HPC)): 6 of 6
- T/C (dose: 31.75 mg/kg/injection, schedule: Q01DX001 (ip), vehicle: Klucel (hydroxypropylcellulose) (HPC)): 105, 112, 121, 123, 148, 156, 163, 169 (2×), 171, 178, 183, 193, 198, 204, 205, 227, 229, 230, 247 % of control
- T/C (dose: 37.5 mg/kg/injection, schedule: Q04DX002 (ip), vehicle: Klucel (hydroxypropylcellulose) (HPC), evaluated on day 30): 119, 129, 152, 189, 194, 195 [2 of 3 alive], 200, 204, 213, 214 (2×), 216, 219, 220, 225 [5 of 6 alive], 229, 230, 231 (2×), 232, 240 (2×), 243, 245, 248, 251, 254, 258, 260, 266, 269 % of control
- T/C (dose: 37.5 mg/kg/injection, schedule: Q04DX002 (ip), vehicle: Klucel (hydroxypropylcellulose) (HPC), evaluated on day 35): 195 (2×) and 214 % of control
- survivor count (dose: 37.5 mg/kg/injection, schedule: Q04DX002 (ip), vehicle: Klucel (hydroxypropylcellulose) (HPC)): 5 of 6 and 3 of 3
- T/C (dose: 37.5 mg/kg/injection, schedule: Q04DX003 (ip), vehicle: Klucel (hydroxypropylcellulose) (HPC)): 170 [2 of 3 alive], 176, 184, 186, 204, 213 (2×), 214, 233, 240, 243, 245, 247 (2×), 252, 253, 257, 258, 259 (2×), 265, 267, 268, 270 (2×), 273, 280, 281, 282, 288 (4×), 295 % of control
- T/C (dose: 50.0 mg/kg/injection, schedule: Q01DX005 (ip), vehicle: Klucel (hydroxypropylcellulose) (HPC), evaluated on day 30): 102, 115, 147, 171, 209, 212, 218, 223, 241, 245, 253, 262, 265, 267, 269, 270, 272, 275 (3×), 277, 280, 285 (2×), 288, 288 [5 of 6 alive], 291 % of control
- T/C (dose: 50.0 mg/kg/injection, schedule: Q01DX005 (ip), vehicle: Klucel (hydroxypropylcellulose) (HPC), evaluated on day 35): 368 % of control
- survivor count (dose: 50.0 mg/kg/injection, schedule: Q01DX005 (ip), vehicle: Klucel (hydroxypropylcellulose) (HPC)): 3 of 3 and 6 of 6
- T/C (dose: 50.0 mg/kg/injection, schedule: Q01DX009 (ip), vehicle: Klucel (hydroxypropylcellulose) (HPC), evaluated on day 30): 89, 99, 102, 104 (2×), 105, 107, 110 (2×), 114 (2×), 116, 126, 127, 130, 132, 141, 185, 219, 240, 243, 251, 274, 288 % of control
- T/C (dose: 50.0 mg/kg/injection, schedule: Q01DX009 (ip), vehicle: Klucel (hydroxypropylcellulose) (HPC), evaluated on day 35): 102 and 321 % of control
- survivor count (dose: 50.0 mg/kg/injection, schedule: Q01DX009 (ip), vehicle: Klucel (hydroxypropylcellulose) (HPC)): 5 of 6, 2 of 2, 3 of 3, 6 of 6
- T/C (dose: 62.5 mg/kg/injection, schedule: Q01DX001 (ip), vehicle: Klucel (hydroxypropylcellulose) (HPC)): 96, 100, 132, 137, 142, 157, 193, 203 (3×), 204, 215, 220, 221 (2×), 222, 226, 236, 237, 240 (2×), 248, 250, 252 (2×), 257 (2×), 260, 265, 269, 289 % of control
